Measurements from paper PMC12886529.
These are yes or no findings as the source states them, for the method shown. Binding calls can cover weak binding; strength is not graded here.

The chains behind the UniProt entries cited, without tags or fusion partners. Where a name states a change or a piece, a line headed by the entry shows the natural chain unless it says otherwise.
UniProt Q14CN2: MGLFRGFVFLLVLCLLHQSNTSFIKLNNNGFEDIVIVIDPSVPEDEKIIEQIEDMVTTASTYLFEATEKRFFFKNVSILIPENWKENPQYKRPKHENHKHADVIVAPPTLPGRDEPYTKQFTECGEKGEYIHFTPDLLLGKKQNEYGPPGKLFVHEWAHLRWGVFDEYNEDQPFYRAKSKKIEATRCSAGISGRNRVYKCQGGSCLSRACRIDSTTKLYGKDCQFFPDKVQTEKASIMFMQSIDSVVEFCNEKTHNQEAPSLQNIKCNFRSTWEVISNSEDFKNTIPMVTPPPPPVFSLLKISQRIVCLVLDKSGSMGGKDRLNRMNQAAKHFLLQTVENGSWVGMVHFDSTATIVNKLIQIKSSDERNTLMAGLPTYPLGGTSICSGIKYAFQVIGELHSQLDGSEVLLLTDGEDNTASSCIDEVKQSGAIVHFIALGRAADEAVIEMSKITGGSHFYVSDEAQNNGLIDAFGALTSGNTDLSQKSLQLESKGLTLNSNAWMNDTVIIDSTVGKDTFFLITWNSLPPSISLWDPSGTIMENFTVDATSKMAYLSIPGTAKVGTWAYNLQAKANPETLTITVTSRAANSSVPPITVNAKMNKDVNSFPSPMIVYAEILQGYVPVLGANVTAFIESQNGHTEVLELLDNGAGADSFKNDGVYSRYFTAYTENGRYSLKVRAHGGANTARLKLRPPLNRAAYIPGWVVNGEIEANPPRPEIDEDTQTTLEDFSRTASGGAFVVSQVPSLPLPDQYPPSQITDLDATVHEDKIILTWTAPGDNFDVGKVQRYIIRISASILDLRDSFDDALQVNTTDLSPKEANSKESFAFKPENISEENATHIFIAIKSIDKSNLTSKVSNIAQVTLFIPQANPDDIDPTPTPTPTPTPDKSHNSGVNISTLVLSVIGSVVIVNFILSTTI
UniProt P08670: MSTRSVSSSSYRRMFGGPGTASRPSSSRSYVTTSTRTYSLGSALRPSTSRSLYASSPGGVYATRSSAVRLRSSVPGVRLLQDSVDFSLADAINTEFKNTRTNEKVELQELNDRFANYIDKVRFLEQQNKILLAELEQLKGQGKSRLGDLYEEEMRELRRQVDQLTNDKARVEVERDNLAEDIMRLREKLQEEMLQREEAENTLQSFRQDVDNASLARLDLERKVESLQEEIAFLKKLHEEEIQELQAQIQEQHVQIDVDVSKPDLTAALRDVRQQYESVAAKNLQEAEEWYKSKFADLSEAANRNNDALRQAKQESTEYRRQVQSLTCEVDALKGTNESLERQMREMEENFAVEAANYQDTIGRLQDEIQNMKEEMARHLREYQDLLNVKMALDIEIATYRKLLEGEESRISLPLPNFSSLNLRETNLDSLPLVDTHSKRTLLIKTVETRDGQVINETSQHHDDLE

Target: GST-CLCA4 fusion protein (UniProt Q14CN2)
Test: pull-down; purified GST-CLCA4 or GST control combined with His-Vimentin, overnight at 4 °C, washed; Western blotting; both purified

With “His-Vimentin (from UniProt P08670 1-466)” the binding was “binds”.
